# Results: patent US20140161803A1 (IFOM Fondazione Istituo FIRC di Oncologia Molecolare, priority 2011, published 2014)
# Protein sequences, listed by entry. Tags and fused reporters are not part of them. Residues count along the entry.
# UniProt Q03405, 23-305: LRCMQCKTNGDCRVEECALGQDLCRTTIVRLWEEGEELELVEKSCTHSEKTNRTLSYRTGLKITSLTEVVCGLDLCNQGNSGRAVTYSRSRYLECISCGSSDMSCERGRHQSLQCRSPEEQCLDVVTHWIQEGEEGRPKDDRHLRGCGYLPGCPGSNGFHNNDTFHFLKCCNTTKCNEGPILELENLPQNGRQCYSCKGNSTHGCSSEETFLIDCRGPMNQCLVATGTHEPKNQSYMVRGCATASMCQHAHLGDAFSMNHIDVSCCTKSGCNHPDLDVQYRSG
# Some of these results come from one statement about several compounds together.
# Molecular target: T1, human uPAR (Homo sapiens, UniProt Q03405)
# T1 construct: the mature protein (Leu^1-Gly^283) in bold; expressed in transfected cells; host or cells: HEK293 Flp-In T-REx (293)
# Test: Real-time cell analyzer (xCELLigence) adhesion of 293/uPAR cells to VN
# Assay type: cell-based
# Experimental: The electric impedance (termed cell index, CI) was recorded at regular intervals. […] The curves show the normalized cell index (NCI, Y-axis) as a function of time (X-axis). All cell indexes were normalized to the cell index measured immediately prior to antibody addition. To determine IC50 values (panel D), the NCI measured one hour after antibody addition were calculated in % of the NCI for untreated cells at the same time point (ΔNCI, Y-axis) and graphed in function of antibody concentration (X-axis).
# 96-well E-Plates were coated with VN (5 μg/ml) or FN (10 μg/ml) over night at 4° C. Plates were washed with PBS, added 0.1 ml serum free medium (DMEM, 0.1% bovine serum albumin, 25 mM Hepes pH 7.0) and transferred to real-time cell analyzer instrument (xCELLigence SP, Roche Corp.). […] The plate was returned to the instrument and the cell index recorded every three minutes. […] After another 1-1.5 hours of measurements the plate was removed again and wells added (20 μl) of antibody diluted to yield the indicated final concentrations. The plate was returned to the instrument and measurements conducted every 3 minutes for 2 hours and then every 15 minutes for 18 hours.
substance,measurement,value
"SMB: uPAR-binding N-terminal domain of VN, natural competitive antagonist of the uPAR/VN-interaction (DQESCKGRCTEGFNVDKKCQCDELCSYYQSCCTDYTAECKPQVT) [reference compound]",inhibition in the presence of pro-uPA (significantly inhibitory),> 20%
